Neurite formation score data for 39 molecules are collected here from the supplement of paper PMC8047044.

The structures appear in SMILES notation. Values joined by “and” are separate entries in the source; they are usually repeats but may differ in a detail not shown here. Equal entries are not always repeated. Some of the results follow. Most values come without repeats; read them as rough.

The experiment concerns Neuro-2a. In words: neurite formation score, plate-normalized to DMSO control mean 5.04 (score (0-8 scale)); higher = more or longer neurites. The following applies: 10 µM.
For `CNCc1ccc(-c2cc(-c3nc(-c4ccc(S(=O)(=O)C(C)C)cc4)cnc3N)on2)cc1`, the neurite formation score was determined as 1.43.

Consider `COc1cc(Nc2ncc(F)c(Nc3ccc4c(n3)NC(=O)C(C)(C)O4)n2)cc(OC)c1OC`, for which the neurite formation score turned out to be 6.43.

As to `C=CC(=O)Nc1cccc(Nc2nc(Nc3ccc(N4CCN(C(C)=O)CC4)cc3OC)ncc2C(F)(F)F)c1`, the neurite formation score worked out at 0.543.

In turn, `C=CC(=O)Nc1ccc(CN2C(=O)N(c3cc(OC)cc(OC)c3)Cc3cnc(Nc4ccc(N5CCN(C)CC5)cc4)nc32)cc1` had a neurite formation score of 1.09.

In the case of `c1ccc2c(-c3cnn4cc(-c5ccc(N6CCNCC6)cc5)cnc34)ccnc2c1`, the neurite formation score was 1.76 and 3.76.

Turning to `CC[C@@H]1C(=O)N(C)c2cnc(Nc3ccc(C(=O)NC4CCN(C)CC4)cc3OC)nc2N1C1CCCC1`, the neurite formation score is 4.08.

`Cn1cc(-c2ccc3nnc(Sc4ccc5ncccc5c4)n3n2)cn1` showed a neurite formation score of 5.54.

`N#C/C(=C(/N)Sc1ccc(N)cc1)c1ccccc1C(F)(F)F` gave a neurite formation score of 4.54.

In turn, `CC(C)[C@H](CO)Nc1nc(Nc2ccc(C(=O)O)c(Cl)c2)c2ncn(C(C)C)c2n1` [Purvalanol B] returned a neurite formation score of 4.76.

In turn, `CCn1c2ccccc2c2cc(Nc3ccnc(NCCCN4CCOCC4)n3)ccc21` gave a neurite formation score of 0.189.

Molecule `O=C1NC(=O)/C(=C/c2cccc(C(F)(F)F)c2)S1` yielded a neurite formation score of 1.74.

In turn, `O=C1c2ccc(Nc3ccc(F)cc3F)cc2CCc2ccc(OC[C@H](O)CO)cc21` [Skepinone-L] came in with a neurite formation score of 2.08.

The molecule `COc1cc(-c2cc(-c3ccc(N4CCNCC4)cc3)cnc2C)cc(OC)c1OC` showed a neurite formation score of 3.42.

As to `N#Cc1c(O)c2c(-c3ccc(-c4ccccc4O)cc3)csc2[nH]c1=O`, the neurite formation score turned out to be 4.08.

Molecule `CC(C)(C)c1ccc(S(=O)(=O)/C=C/C#N)cc1` yielded a neurite formation score of 0.189.

On to `Cc1nc(Nc2ncc(C(=O)Nc3c(C)cccc3Cl)s2)cc(N2CCN(CCO)CC2)n1`, for which the neurite formation score was determined as 1.54.

In turn, `O=C(Nc1ccc2[nH]nc(-c3ccncc3)c2c1)[C@@H]1CCN(CC(=O)N2CCN(c3ccc(-c4ncccn4)cc3)CC2)C1` returned a neurite formation score of 4.42.

`N=C(N)NCCC(=O)O` [3-Guanidinopropionic Acid] came in with a neurite formation score of 5.19.

For `O=c1c(-c2ccc(O)cc2)coc2cc(O)cc(O)c12` [Genistein], the neurite formation score was 4.54.

On to `CC(C)c1cc(CNc2nc(Nc3cc(C4CC4)[nH]n3)cc(N3CCN(C)CC3)n2)on1`, for which the neurite formation score was 0.41.

As to `Nc1nc(NCCNc2ncc(-n3ccnc3)c(-c3ccc(Cl)cc3Cl)n2)ccc1[N+](=O)[O-]`, the neurite formation score came to 4.76.

Regarding `N[C@@H]1CCCN(c2c(/C=C3\SC(=O)NC3=O)cccc2-c2ccccc2)C1`, the neurite formation score came to 4.08.

Molecule `COc1cc2c(Nc3ccc(NC(=O)c4ccccc4)cc3)ncnc2cc1OCCCN1CCOCC1` displayed a neurite formation score of 3.08.

Regarding `COc1cc(-c2cc(-c3cccc(O)c3)cnc2N)cc(OC)c1OC`, the neurite formation score stood at 0.855.

Take `COc1ccc(CNc2nc(N(CCO)CCO)nc3c2ncn3C(C)C)cc1`: the neurite formation score stood at 4.88.

For the molecule `CCC(=O)Nc1cccc(Oc2nc(Nc3ccc(N4CCN(C)CC4)cc3OC)ncc2Cl)c1`, the neurite formation score came out at 3.43.

In the case of `C=CC(=O)Nc1cccc(Nc2nc(Nc3ccc(OCCOC)cc3)ncc2F)c1`, the neurite formation score worked out at 0.209.

In turn, `COc1ccc(-c2ccc3c(N4CCOCC4)nc(N4C[C@@H](C)O[C@@H](C)C4)nc3n2)cc1CO` had a neurite formation score of 3.08.

Turning to `CCCS(=O)(=O)Nc1ccc(F)c(C(=O)c2c[nH]c3ncc(Cl)cc23)c1F`, the neurite formation score stood at 4.88.

The molecule `Cc1cc(Nc2cc(CN3CCOCC3)c3nc(C)c(Cc4ccc(Cl)cc4F)n3n2)n[nH]1` showed a neurite formation score of 0.077.

Take `O=C1NC(=O)[C@@H](c2cn3c4c(cccc24)CCC3)[C@@H]1c1c[nH]c2ccccc12` [Tivantinib (ARQ 197)]: the neurite formation score is 0.853.

For `O=C(/C=C/c1ccc2ccccc2n1)c1ccncc1`, the neurite formation score was 0.189.

As to `COc1cc(OC)c(/C=C/S(=O)(=O)Cc2ccc(OC)c(NCC(=O)O)c2)c(OC)c1`, the neurite formation score is 0.209.

Take `CC[C@@H]1C(=O)N(C)c2cnc(Nc3ccc(C(=O)N[C@H]4CC[C@H](N5CCN(CC6CC6)CC5)CC4)cc3OC)nc2N1C(C)C` [BI6727 (Volasertib)]: the neurite formation score worked out at 4.76.

Take `CN(C)C/C=C/C(=O)Nc1cc2c(Nc3ccc(F)c(Cl)c3)ncnc2cc1O[C@H]1CCOC1` [Afatinib (BIBW2992)]: the neurite formation score worked out at 4.52.

On to `O=C(O)[C@]1(Cc2cccc(Nc3nccs3)n2)CC[C@@H](Oc2cccc(Cl)c2F)CC1`, for which the neurite formation score was determined as 0.41.

`C[C@]1(O)C[C@@H](c2nc(-c3ccc4ccc(-c5ccccc5)nc4c3)c3c(N)nccn32)C1` [Linsitinib] yielded a neurite formation score of 3.85.

Turning to `COc1ccc(-c2cnc3c(-c4cccc5ncccc45)cnn3c2)cc1`, the neurite formation score was determined as 3.52.

For the molecule `CCn1nnc2c(N3CCOCC3)nc(-c3ccc(NC(=O)Nc4ccc(C(=O)N5CCN(C)CC5)cc4)cc3)nc21`, the neurite formation score came out at 3.09.
